Laboratory results published in publication PMC10454621.
These are yes or no findings as the source states them, for the method shown. Some results given as binding are weak or reduced against the parent protein; the word gives no strength.

Sequences of proteins named here, by UniProt entry; tags and fusion partners are left off. Residues count along the entry.
UniProt P05067, residues 672-713: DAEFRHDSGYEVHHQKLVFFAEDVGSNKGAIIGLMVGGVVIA
UniProt P61769: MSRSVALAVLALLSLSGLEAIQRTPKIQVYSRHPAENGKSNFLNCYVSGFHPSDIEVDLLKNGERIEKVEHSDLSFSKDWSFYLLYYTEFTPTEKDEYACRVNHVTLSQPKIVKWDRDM

Key:
Assay in all cases: far-UV CD spectroscopy; aggregated or fibrillar form of the mammalian protein (0.5 mg/mL; for lysozyme during fibrillogenesis and after its completion) mixed with vicilin amyloid fibrils (0.1 mg/mL), incubated for 2 h; interaction read from a change in the CD spectrum; both purified
[1] = molecular target: 42-residue β-amyloid peptide (UniProt P05067)
[2] = molecular target: lysozyme (UniProt P00698)
[3] = molecular target: β-2-microglobulin (UniProt P61769)

Measured: binding

B1: 7S seed storage globulin vicilin of the garden pea Pisum sativum L. (protein, UniProt P13918 29-459)
chain: RSDPQNPFIFKSNKFQTLFENENGHIRLLQKFDQRSKIFENLQNYRLLEYKSKPHTIFLPQHTDADYILVVLSGKAILTVLKPDDRNSFNLERGDTIKLPAGTIAYLVNRDDNEELRVLDLAIPVNRPGQLQSFLLSGNQNQQNYLSGFSKNILEASFNTDYEEIEKVLLEEHEKETQHRRSLKDKRQQSQEENVIVKLSRGQIEELSKNAKSTSKKSVSSESEPFNLRSRGPIYSNEFGKFFEITPEKNPQLQDLDIFVNSVEIKEGSLLLPHYNSRAIVIVTVNEGKGDFELVGQRNENQQEQRKEDDEEEEQGEEEINKQVQNYKAKLSSGDVFVIPAGHPVAVKASSNLDLLGFGINAENNQRNFLAGDEDNVISQIQRPVKELAFPGSAQEVDRILENQKQSHFADAQPQQRERGSRETRDRLSSV
binds: [1] | [2] | [3]
